The values below come from publication PMC5717138.

In assay [1] the target is T1, 2xFlag-Polη (DNA polymerase η, wild type) (human) (UniProt Q9Y253).
T1 sequence: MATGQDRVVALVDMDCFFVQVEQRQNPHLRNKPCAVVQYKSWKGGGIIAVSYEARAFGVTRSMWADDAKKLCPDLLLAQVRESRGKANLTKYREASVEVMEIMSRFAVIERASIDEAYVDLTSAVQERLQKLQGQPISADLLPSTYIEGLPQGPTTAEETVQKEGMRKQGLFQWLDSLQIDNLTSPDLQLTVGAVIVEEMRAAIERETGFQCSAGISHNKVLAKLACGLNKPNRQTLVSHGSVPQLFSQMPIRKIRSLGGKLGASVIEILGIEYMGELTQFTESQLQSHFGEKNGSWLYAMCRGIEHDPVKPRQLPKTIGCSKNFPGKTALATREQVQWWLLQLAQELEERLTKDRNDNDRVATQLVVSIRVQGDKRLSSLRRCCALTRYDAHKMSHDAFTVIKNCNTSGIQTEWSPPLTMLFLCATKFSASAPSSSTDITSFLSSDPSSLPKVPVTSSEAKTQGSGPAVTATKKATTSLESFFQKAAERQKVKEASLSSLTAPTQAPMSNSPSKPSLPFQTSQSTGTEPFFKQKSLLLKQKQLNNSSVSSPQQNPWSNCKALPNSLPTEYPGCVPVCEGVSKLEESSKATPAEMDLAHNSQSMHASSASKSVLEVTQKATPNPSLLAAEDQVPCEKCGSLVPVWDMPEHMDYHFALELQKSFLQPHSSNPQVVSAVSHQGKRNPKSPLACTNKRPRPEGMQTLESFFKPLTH
Put plainly: co-IP; 293T cells transfected with Flag-Polη (WT or mutants); lysis in HEPES buffer (50 mM HEPES pH 7.5, 150 mM NaCl, 1% Triton X-100); anti-Flag M2 agarose; blot with anti-OGT; also after UVC (15 J m^-2, 4 h) or CDDP (10 µg ml^-1, 2 h).

Assay [2] concerns the target T2, Flag-Polη T457A (human) (UniProt Q9Y253).
T2 sequence: T1 sequence with T457A
The description is as above.

The target of assay [3] is T3, Flag-Polη-3A (T457A/S458A/S459A) (human) (UniProt Q9Y253).
T3 sequence: T1 sequence with T457A, S458A, S459A
The description is as above.

The target in assay [4] is T4, Flag-Polη-5A (T457A/S458A/S459A/S466A/T471A) (human) (UniProt Q9Y253).
T4 sequence: T1 sequence with T457A, S458A, S459A, S466A, T471A
Described as above.

For assay [5], the target named is T1, 2xFlag-Polη (DNA polymerase η, wild type) (human). Put plainly: co-IP; Myc-tagged WT OGT and a series of OGT deletion mutants with Polη (Supplementary Fig. 2d); who was precipitated not shown.

Positions count from the first letter of the chain named. No constants are given. Whether binding was seen depends on the method and setting. In cells and extracts the contact can be indirect. Some entries that bind do so weakly or less than the wild type. Tags and fused reporters may be left off the sequences shown.

B1: O-GlcNAc transferase (OGT), endogenous (enzyme, UniProt O15294 1-1046)
chain: MASSVGNVADSTEPTKRMLSFQGLAELAHREYQAGDFEAAERHCMQLWRQEPDNTGVLLLLSSIHFQCRRLDRSAHFSTLAIKQNPLLAEAYSNLGNVYKERGQLQEAIEHYRHALRLKPDFIDGYINLAAALVAAGDMEGAVQAYVSALQYNPDLYCVRSDLGNLLKALGRLEEAKACYLKAIETQPNFAVAWSNLGCVFNAQGEIWLAIHHFEKAVTLDPNFLDAYINLGNVLKEARIFDRAVAAYLRALSLSPNHAVVHGNLACVYYEQGLIDLAIDTYRRAIELQPHFPDAYCNLANALKEKGSVAEAEDCYNTALRLCPTHADSLNNLANIKREQGNIEEAVRLYRKALEVFPEFAAAHSNLASVLQQQGKLQEALMHYKEAIRISPTFADAYSNMGNTLKEMQDVQGALQCYTRAIQINPAFADAHSNLASIHKDSGNIPEAIASYRTALKLKPDFPDAYCNLAHCLQIVCDWTDYDERMKKLVSIVADQLEKNRLPSVHPHHSMLYPLSHGFRKAIAERHGNLCLDKINVLHKPPYEHPKDLKLSDGRLRVGYVSSDFGNHPTSHLMQSIPGMHNPDKFEVFCYALSPDDGTNFRVKVMAEANHFIDLSQIPCNGKAADRIHQDGIHILVNMNGYTKGARNELFALRPAPIQAMWLGYPGTSGALFMDYIITDQETSPAEVAEQYSEKLAYMPHTFFIGDHANMFPHLKKKAVIDFKSNGHIYDNRIVLNGIDLKAFLDSLPDVKIVKMKCPDGGDNADSSNTALNMPVIPMNTIAEAVIEMINRGQIQITINGFSISNGLATTQINNKAATGEEVPRTIIVTTRSQYGLPEDAIVYCNFNQLYKIDPSTLQMWANILKRVPNSVLWLLRFPAVGEPNIQQYAQNMGLPQNRIIFSPVAPKEEHVRRGQLADVCLDTPLCNGHTTGMDVLWAGTPMVTMPGETLASRVAASQLTCLGCLELIAKNRQEYEDIAVKLGTDLEYLKKVRGKVWKQRISSPLFNTKQYTMELERLYLQMWEHYAAGNKPDHMIKPVEVTESA
In the case of B1, the binding entry in assay [1], in assay [2], in assay [3] and in assay [4] was “binds” throughout.

B2: Myc-tagged WT OGT (enzyme, UniProt O15294 1-1046)
chain: B1 chain
On to B2, for which, in assay [5], the binding result was “binds”.
